According to patent US20110201109A1:
Results are given in words; binding and its absence hold for the method and conditions named. Binding seen in cells or lysates may run through a third protein. Some entries that bind do so weakly or less than the wild type. Tags and fused reporters may be left off the sequences shown. One block for each molecule: values may come before it.

Experiments:
Test in all cases: GST pull-down from co-transfected 293 cells, anti-Myc Western blot
Myc-tagged Ronin (human) = Myc-tagged Ronin (human) (UniProt Q96EK4)
[1] = target: T1, Myc-tagged HCF-1 (aa 1-429) (human) (UniProt P51610)
T1 sequence (looked up): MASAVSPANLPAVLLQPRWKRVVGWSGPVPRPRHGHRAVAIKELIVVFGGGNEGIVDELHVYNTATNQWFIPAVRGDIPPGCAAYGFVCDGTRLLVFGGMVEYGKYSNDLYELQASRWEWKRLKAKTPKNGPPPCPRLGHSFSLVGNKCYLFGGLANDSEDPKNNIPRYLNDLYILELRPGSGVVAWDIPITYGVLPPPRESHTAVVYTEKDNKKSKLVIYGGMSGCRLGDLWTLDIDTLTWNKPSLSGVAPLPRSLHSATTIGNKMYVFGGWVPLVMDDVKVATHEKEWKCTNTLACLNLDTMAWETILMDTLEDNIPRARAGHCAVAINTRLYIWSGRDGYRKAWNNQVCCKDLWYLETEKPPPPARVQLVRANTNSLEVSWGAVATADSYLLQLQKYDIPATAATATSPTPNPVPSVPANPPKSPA

[2] = target: T2, Myc-tagged THAP7 (human), Q9BT49; settings: remark: other sources report otherwise
T2 chain: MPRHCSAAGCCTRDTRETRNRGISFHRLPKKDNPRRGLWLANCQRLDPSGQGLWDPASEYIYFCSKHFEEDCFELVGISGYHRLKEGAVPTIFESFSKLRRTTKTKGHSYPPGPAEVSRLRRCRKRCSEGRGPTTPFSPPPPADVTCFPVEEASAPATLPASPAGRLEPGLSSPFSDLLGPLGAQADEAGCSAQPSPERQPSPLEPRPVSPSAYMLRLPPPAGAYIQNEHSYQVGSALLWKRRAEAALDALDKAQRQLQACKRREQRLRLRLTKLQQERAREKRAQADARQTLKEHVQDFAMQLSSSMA

Myc-tagged THAP7 (human) = target: T3, Myc-tagged THAP7 (human) (UniProt Q9BT49)
T3 sequence (looked up): T2 chain

B2: GST-tagged Ronin-C (aa 132-315) (protein, human, UniProt Q96EK4 132-314, looked up, not shown: a dimerising Fc or GST)
chain: QSSPSASTAQTAQLQPNLVSASAAVLLTLQATVDSSQAPGSVQPAPITPTGEDVKPIDLTVQVEFAAAEGAAAAAAASELQAATAGLEAAECPMGPQLVVVGEEGFPDTGSDHSYSLSSGTTEEELLRKLNEQRDILALMEVKMKEMKGSIRHLRLTEAKLREELREKDRLLAMAVIRKKHGM
binding (Myc-tagged Ronin (human)): binds
binding [1]: binds

B3: GST-tagged Ronin-N (aa 1-103) (protein, human, UniProt Q96EK4 1-103, looked up, not shown: a dimerising Fc or GST)
chain: MPGFTCCVPGCYNNSHRDKALHFYTFPKDAELRRLWLKNVSRAGVSGCFSTFQPTTGHRLCSVHFQGGRKTYTVRVPTIFPLRGVNERKVARRPAGAAAARRR
binding (Myc-tagged THAP7 (human)): binds

Continued, values first:

binding (Myc-tagged Ronin (human)): binds
binding [1]: binds
Molecule: GST-tagged Ronin (full-length) (from UniProt Q96EK4 1-314)

binding [2]: binds
B1: GST-tagged Ronin (full-length), Q96EK4 1-314 (protein, human, UniProt Q96EK4 1-314, looked up, not shown: a dimerising Fc or GST)
chain: MPGFTCCVPGCYNNSHRDKALHFYTFPKDAELRRLWLKNVSRAGVSGCFSTFQPTTGHRLCSVHFQGGRKTYTVRVPTIFPLRGVNERKVARRPAGAAAARRRQQQQQQQQQQQQQQQQQQQQQQQQQQQQQSSPSASTAQTAQLQPNLVSASAAVLLTLQATVDSSQAPGSVQPAPITPTGEDVKPIDLTVQVEFAAAEGAAAAAAASELQAATAGLEAAECPMGPQLVVVGEEGFPDTGSDHSYSLSSGTTEEELLRKLNEQRDILALMEVKMKEMKGSIRHLRLTEAKLREELREKDRLLAMAVIRKKHGM
